# PubChem BioAssay AID1053208, Peter MacCallum Cancer Centre | 2014
# Screen: 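Genes whose silencing cuts survival of bone tumour cells only with doxorubicin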 (primary screen)
# Cell system: mouse osteosarcoma cells, early-passage culture from an engineered mouse model of fibroblastic bone tumour
# Reagent: siRNA pool against mouse genes, 40 nM
# Duration: about 120 h (48 h before drug, then 72 h with drug)
# Treatment: doxorubicin 100 nM for 72 h, roughly 30-40% inhibitory dose
# Read-out: 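Luminescent ATP signal taken as viability with or without 100 nM doxorubicin for 72 h; mean of two wells set against non-targeting siRNA and turned into robust z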
# Scale: viability z-score with doxorubicin and doxorubicin viability vs non-targeting: higher = more viable cells under doxorubicin; viability z-score without drug: higher = more viable cells with knock-down alone; z-score of drug to no-drug ratio: higher = less drug sensitisation by knock-down
# Active means: 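Called active if knock-down leaves viability unchanged without drug (z within -2 to 2) but lowers it with doxorubicin (z at or under -2)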
# This is one part, drawn at random, of about 17,000 deposited reagents. In the full data, 788 (4.7%) are marked active. 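Calls rest on z-score classes alone; an extra cut-off of viability at most 70% of control was not applied to them.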 The numbers tell different reagents against one gene apart.
gene symbol,pool no.,combined z-score class,viability z-score with doxorubicin,viability z-score without drug,z-score of drug to no-drug ratio,doxorubicin viability vs non-targeting,Call
Fpr3 (formyl peptide receptor 3),1,high cell count without drug only,1.35,2.53,-0.22,1.06,inactive
Fpr3 (formyl peptide receptor 3),2,no change with or without drug,-0.79,-0.17,-0.56,0.87,inactive
Fate1 (fetal and adult testis expressed 1),1,no change with or without drug,-0.11,-0.67,0.45,0.93,inactive
Emb (embigin),1,high cell count without drug only,0.9,2.7,-0.67,1.02,inactive
"Col18a1 (collagen, type XVIII, alpha 1)",1,no change with or without drug,1.12,0.84,0.67,1.04,inactive
Fgf9 (fibroblast growth factor 9),1,no change with or without drug,0.56,0,0.67,0.99,inactive
"Ap5s1 (adaptor-related protein 5 complex, sigma 1 subunit)",1,no change with or without drug,0.67,0.51,0.45,1,inactive
Mlxipl (MLX interacting protein-like),1,no change with or without drug,0.45,0,0.56,0.98,inactive
Dcxr (dicarbonyl L-xylulose reductase),1,no change with or without drug,1.35,-0.84,2.25,1.06,inactive
Kcnn4,1,no change with or without drug,-1.91,-1.35,-1.01,0.77,inactive
"Pde6h (phosphodiesterase 6H, cGMP-specific, cone, gamma)",1,no change with or without drug,-0.22,-0.51,0.22,0.92,inactive
Klrb1c (killer cell lectin-like receptor subfamily B member 1C),1,no change with or without drug,-1.01,-0.67,-0.56,0.85,inactive
Ewsr1 (Ewing sarcoma breakpoint region 1),1,no change with or without drug,-0.22,1.18,-0.9,0.92,inactive
Necab2 (N-terminal EF-hand calcium binding protein 2),1,no change with or without drug,-1.57,-1.18,-0.79,0.8,inactive
Foxi1 (forkhead box I1),1,no change with or without drug,1.69,1.52,0.79,1.09,inactive
Idi2 (isopentenyl-diphosphate delta isomerase 2),1,no change with or without drug,-0.45,-0.51,0,0.9,inactive
"Egfl6 (EGF-like-domain, multiple 6)",1,no change with or without drug,-0.22,0.51,-0.45,0.92,inactive
Unc13b (unc-13 homolog B),1,no change with or without drug,0.67,0.34,0.56,1,inactive
"Rab20 (RAB20, member RAS oncogene family)",1,no change with or without drug,0.67,0.67,0.34,1,inactive
Ggnbp2 (gametogenetin binding protein 2),1,no change with or without drug,-0.67,-0.84,0,0.88,inactive
Scai (suppressor of cancer cell invasion),1,high cell count without drug only,0.67,2.53,-0.79,1,inactive
Ufm1 (ubiquitin-fold modifier 1),1,no change with or without drug,-0.67,0.17,-0.67,0.88,inactive
Gata5 (GATA binding protein 5),1,no change with or without drug,0.56,0,0.67,0.99,inactive
Zfp385a (zinc finger protein 385A),1,no change with or without drug,0,-1.18,1.01,0.94,inactive
Snhg16 (small nucleolar RNA host gene 16),1,no change with or without drug,-1.35,-0.17,-1.24,0.82,inactive
Sall4 (spalt like transcription factor 4),1,no change with or without drug,-0.67,1.18,-1.35,0.88,inactive
Rpl22 (ribosomal protein L22),1,no change with or without drug,0,0.17,0,0.94,inactive
Porcn (porcupine O-acyltransferase),1,high cell count with doxorubicin only,2.25,1.85,1.12,1.14,inactive
Mep1a (meprin 1 alpha),1,no change with or without drug,-1.01,-0.51,-0.67,0.85,inactive
Shd (src homology 2 domain-containing transforming protein D),1,no change with or without drug,0.56,-0.84,1.35,0.99,inactive
Spock2,1,no change with or without drug,0,-0.17,0.22,0.94,inactive
Ptp4a2 (protein tyrosine phosphatase 4a2),1,no change with or without drug,1.57,1.52,0.67,1.08,inactive
Selenoi (selenoprotein I),1,no change with or without drug,-0.56,-0.84,0.11,0.89,inactive
"Gucy1a2 (guanylate cyclase 1, soluble, alpha 2)",1,no change with or without drug,0.34,0.34,0.22,0.97,inactive
Nxph1 (neurexophilin 1),1,no change with or without drug,-0.79,-0.51,-0.34,0.87,inactive
Klk1b5 (kallikrein 1-related peptidase b5),1,high cell count with and without drug,2.47,2.19,1.01,1.16,inactive
Bphl (biphenyl hydrolase like),1,no change with or without drug,0.67,-0.84,1.46,1,inactive
Speer4d (spermatogenesis associated glutamate (E)-rich protein 4D),1,no change with or without drug,1.12,0.34,1.01,1.04,inactive
Ntsr1 (neurotensin receptor 1),1,no change with or without drug,-1.01,-1.85,0.34,0.85,inactive
Ppm1k (protein phosphatase 1K (PP2C domain containing)),1,no change with or without drug,1.35,-1.18,2.47,1.06,inactive
Gigyf2 (GRB10 interacting GYF protein 2),1,no change with or without drug,-1.12,0.34,-1.24,0.84,inactive
Pak5 (p21 (RAC1) activated kinase 5),1,no change with or without drug,-0.22,-1.35,0.9,0.92,inactive
"Tbc1d10c (TBC1 domain family, member 10c)",1,no change with or without drug,-1.01,-0.17,-0.9,0.85,inactive
Apoc4 (apolipoprotein C-IV),1,no change with or without drug,0.22,0.17,0.22,0.96,inactive
Prrt1 (proline-rich transmembrane protein 1),1,no change with or without drug,0.79,0.34,0.67,1.01,inactive
Slx4ip (SLX4 interacting protein),1,low cell count with doxorubicin only,-2.47,-0.17,-2.36,0.72,active
Bcr (BCR activator of RhoGEF and GTPase),1,no change with or without drug,0.11,-0.34,0.45,0.95,inactive
Avpr2 (arginine vasopressin receptor 2),1,no change with or without drug,-0.22,0.84,-0.67,0.92,inactive
"Fam187a (family with sequence similarity 187, member A)",1,low cell count with doxorubicin only,-2.47,0.51,-2.81,0.72,active
Pcdhb8 (protocadherin beta 8),1,high cell count with doxorubicin only,2.59,1.18,1.91,1.17,inactive
